Measured data: PubChem BioAssay AID1671195 (Yale University, 2021)
Screen: 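Genes whose knockdown alters LDL uptake in liver cancer cells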 (primary screen). Cells: human Huh7 hepatoma cells. Reagents: siRNA pool against human genes, 18 nM. Timing: about 2 to 2.5 days of knockdown, then 8 h LDL uptake. Treatment: DiI-labelled LDL at 30 µg/ml for 8 h, in lipoprotein-deficient serum medium. Measurement: 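Per-cell DiI-LDL intensity by automated imaging; well means scaled to the plate median and given as a robust z-score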. Scale: robust z-score: higher = more LDL uptake after knockdown. Active means: 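Active when two or more replicates show a robust z-score above 2 or below -2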.
This is an unselected part of about 22,000 deposited reagents. In the full data, about 1,510 (6.9%) got an active call. 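Active includes knockdowns raising or lowering LDL uptake; positive z-scores mean more uptake, negative mean less.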 Entries without a mark were called inactive. Reagents against one gene are numbered here.

target | reagent | robust z-score, replicate 1 | robust z-score, replicate 2 | robust z-score, replicate 3
LOC400575 (retired record) | 1 | 0.0468 | 0.287 | 0.155
LINC00900 (long independently transcribed non-coding RNA 900) | 1 | -0.816 | -0.182 | -0.232
LOC389237 (retired record) | 1 | 0.928 | 0.44 | 0.908
NRF1 (nuclear respiratory factor 1) | 1 | 0.356 | -0.051 | -0.128
C10orf88B (C10orf88B (pseudogene)) | 1 | 1.24 | 0.284 | 0.555
EMP1 (epithelial membrane protein 1) | 1 | 0.258 | 1.16 | 1.1
KRTAP5-4 (keratin associated protein 5-4) | 1 | -0.284 | -0.0897 | -0.727
E2F8 (E2F transcription factor 8) | 1 | -0.493 | -0.333 | -0.0769
TUBB3 (tubulin beta 3 class III) | 1 | -1.45 | -0.89 | -1.26
DPY19L3 (dpy-19 like C-mannosyltransferase 3) | 1 | 0.641 | -0.23 | 0.933
DPY19L3 (dpy-19 like C-mannosyltransferase 3) | 2 | -0.616 | -1.11 | 0.119
METTL1 (methyltransferase 1, tRNA methylguanosine) | 1 | 0.363 | 2.72 | 1.33
ELSPBP1 (epididymal sperm binding protein 1) | 1 | -0.746 | -0.938 | -1.29
FAM237A (family with sequence similarity 237 member A) | 1 | -0.481 | -0.557 | -0.429
NUP214 (nucleoporin 214) | 1 | 1.26 | 0.874 | 0.149
QRSL1 (glutaminyl-tRNA amidotransferase subunit QRSL1) | 1 | 1.6 | 1.47 | 1.92
SAFB (scaffold attachment factor B) | 1 | 0.751 | 0.833 | -0.351
LTF (lactotransferrin) | 1 | 0.25 | 0.671 | 0.505
OR2G3 (olfactory receptor family 2 subfamily G member 3) | 1 | -1.45 | -1.5 | -1.55
MMP7 (matrix metallopeptidase 7) | 1 | 1.31 | -0.58 | 0.106
LOC440033 (retired record) | 1 | 1.32 | 1.94 | 1.17
DNAH17 (dynein axonemal heavy chain 17) | 1 | -1.93 (active) | -2.18 | -1.49
DNAH17 (dynein axonemal heavy chain 17) | 2 | -0.0609 | -0.0324 | 0.0651
NAALADL2 (N-acetylated alpha-linked acidic dipeptidase like 2) | 1 | -0.148 | 0.433 | 0.121
RAB39B (RAB39B, member RAS oncogene family) | 1 | 0.763 | -0.264 | -0.418
APP (amyloid beta precursor protein) | 1 | -0.565 | 1.14 | 0.27
LAMB4 (laminin subunit beta 4) | 1 | 0.637 | -1.03 | -0.169
TMEM268 (transmembrane protein 268) | 1 | 1.76 | 1.29 | 1.45
MARVELD3 (MARVEL domain containing 3) | 1 | -1.69 | -2.22 | -1.37
LOC442074 (retired record) | 1 | -1.21 | -1.16 | -1.17
SLC22A12 | 1 | -0.635 | -0.524 | -0.167
POLR3GL (RNA polymerase III subunit GL) | 1 | -0.257 | -0.167 | -0.315
ZXDC (ZXD family zinc finger C) | 1 | -0.399 | -0.113 | -0.0262
SSX7 (SSX family member 7) | 1 | -0.469 | -0.191 | -0.367
P2RX5 (purinergic receptor P2X 5) | 1 | -1.03 | -1.37 | -1.03
LOC388461 (retired record) | 1 | -0.382 | -0.446 | -0.389
TIMELESS (timeless circadian regulator) | 1 | -0.517 | -1.16 | -0.553
CDK7 (cyclin dependent kinase 7) | 1 | 1.63 | 1.22 | 0.554
CR1 (complement C3b/C4b receptor 1 (Knops blood group)) | 1 | 0.018 | 0.907 | -1.15
TMEM14C (transmembrane protein 14C) | 1 | 0.356 | 0.988 | 1.35
TMEM116 (transmembrane protein 116) | 1 | 3.17 (active) | 1.68 | 2.89
TP53AIP1 (tumor protein p53 regulated apoptosis inducing protein 1) | 1 | 0.785 | 1.51 | 0.944
E2F2 (E2F transcription factor 2) | 1 | 1.32 | 1.33 | 1.32
ZMYM4 (zinc finger MYM-type containing 4) | 1 | 1.33 | 0.885 | 0.253
NUDT12 (nudix hydrolase 12) | 1 | -0.374 | 0.893 | -0.0338
LOC442456 (retired record) | 1 | -0.609 | -0.0579 | 0.272
PTRHD1 (peptidyl-tRNA hydrolase domain containing 1) | 1 | -1.07 | -1.32 | -1.35
TMEM272 (transmembrane protein 272) | 1 | -1.67 | -1.44 | -1.5
FAM230C (family with sequence similarity 230 member C) | 1 | 0.713 | 1.57 | 3.03
LOC388794 (retired record) | 1 | 0.115 | -0.266 | 0.44
LOC390338 (retired record) | 1 | 0.0162 | -0.0701 | 0.0969
CATSPERD (catsper channel auxiliary subunit delta) | 1 | -0.421 | -0.215 | -0.36
NEXMIF (neurite extension and migration factor) | 1 | -0.254 | -0.299 | -0.273
LOC440851 (retired record) | 1 | -0.135 | -0.529 | -0.418
BRSK2 (BR serine/threonine kinase 2) | 1 | 0.489 | -0.634 | -0.395
B3GALNT2 (beta-1,3-N-acetylgalactosaminyltransferase 2) | 1 | 0.216 | -0.39 | 0.214
CFAP206 (cilia and flagella associated protein 206) | 1 | -0.756 | 1.06 | -0.213
LOC389778 (retired record) | 1 | 5.91 (active) | 6.33 | 7.6
LOC729995 | 1 | -1.16 | -0.96 | -1.1
C21orf58 (chromosome 21 open reading frame 58) | 1 | -0.181 | -1.44 | 0.497
RASAL1 (RAS protein activator like 1) | 1 | 0.309 | 0.769 | 0.879
LOC401188 (retired record) | 1 | 0.49 | -0.132 | -0.228
ZNF561 (zinc finger protein 561) | 1 | 1.7 | 1.53 | -0.352
ALPP (alkaline phosphatase, placental) | 1 | -1.06 | -1.07 | -0.671
LYAR (Ly1 antibody reactive) | 1 | 2.32 | -0.745 | 1.09
PRXL2A (peroxiredoxin like 2A) | 1 | -0.18 | -0.0449 | -0.242
ABCC3 (ATP binding cassette subfamily C member 3) | 1 | -0.587 | -0.539 | -0.689
SH2D4B (SH2 domain containing 4B) | 1 | -1.79 | -1.69 | -1.77

Not a retest: an excerpt of the list.
target | reagent | robust z-score, replicate 1 | robust z-score, replicate 2 | robust z-score, replicate 3
TUBB3 (tubulin beta 3 class III) | 1 | -1.45 | -0.89 | -1.26
DPY19L3 (dpy-19 like C-mannosyltransferase 3) | 1 | 0.641 | -0.23 | 0.933
DPY19L3 (dpy-19 like C-mannosyltransferase 3) | 2 | -0.616 | -1.11 | 0.119
METTL1 (methyltransferase 1, tRNA methylguanosine) | 1 | 0.363 | 2.72 | 1.33
ELSPBP1 (epididymal sperm binding protein 1) | 1 | -0.746 | -0.938 | -1.29
FAM237A (family with sequence similarity 237 member A) | 1 | -0.481 | -0.557 | -0.429
